PubChem BioAssay AID1259424, University of Nebraska Medical Center – 2018
In all, the deposit lists about 14,000 reagents; this is a part drawn at random. 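Higher correlation or smaller distance means closer resemblance to KSR1 loss; control wells, including KSR1 knockdowns, recur on many plates.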 The numbers tell different reagents against one gene apart. Not all columns of the deposit are shown. The record does not give: the time to read-out.

Assay: 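Seek colon cancer survival genes behaving like KSR1, using a six-gene signature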 (primary screen)
System: human HCT116 colon cancer cells
Knock-down reagent: siRNA pool against human genes, 50 nM
Read-out: 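Six signature mRNAs by branched-DNA multiplex assay, scaled to two housekeeping genes and non-targeting median, log2; matched to mean KSR1 knockdown profile by Pearson correlation and euclidean distance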
Direction: mean correlation with KSR1 profile: higher = expression change more like KSR1 knockdown; mean distance from KSR1 profile: higher = expression change less like KSR1 knockdown

| target | pool no. | mean correlation with KSR1 profile | mean distance from KSR1 profile |
| --- | --- | --- | --- |
| BUD13 (BUD13 spliceosome associated protein) | 1 | -0.0315 | 2.36 |
| CACNA2D1 | 1 | -0.0473 | 1.54 |
| MCAM (melanoma cell adhesion molecule) | 1 | 0.664 | 0.914 |
| NASP (nuclear autoantigenic sperm protein) | 1 | -0.176 | 1.25 |
| MAP3K2 (mitogen-activated protein kinase kinase kinase 2) | 1 | -0.0315 | 2.31 |
| SPEN (spen family transcriptional repressor) | 1 | 0.479 | 1.46 |
| GP5 (glycoprotein V platelet) | 1 | 0.547 | 2.71 |
| NCOA5 (nuclear receptor coactivator 5) | 1 | -0.778 | 2.26 |
| MAP7D1 (MAP7 domain containing 1) | 1 | 0.396 | 1.59 |
| STAG2 (STAG2 cohesin complex component) | 1 | -0.572 | 2.05 |
| RPS24 (ribosomal protein S24) | 1 | 0.123 | 1.54 |
| KLF11 (KLF transcription factor 11) | 1 | 0.034 | 1.54 |
| TGOLN2 (trans-golgi network protein 2) | 1 | 0.0297 | 1.84 |
| RRN3 (RNA polymerase I transcription factor RRN3) | 1 | -0.471 | 3.86 |
| ACTN4 (actinin alpha 4) | 1 | -0.365 | 1.15 |
| WBP11 (WW domain binding protein 11) | 1 | -0.642 | 3.96 |
| RP2 (RP2 activator of ARL3 GTPase) | 1 | 0.349 | 1.36 |
| ARFRP1 (ARF related protein 1) | 1 | -0.407 | 2.99 |
| KLK15 (kallikrein related peptidase 15) | 1 | -0.363 | 3.53 |
| B4GALT3 (beta-1,4-galactosyltransferase 3) | 1 | -0.675 | 2.46 |
| MRPS22 (mitochondrial ribosomal protein S22) | 1 | 0.168 | 1.99 |
| OBSCN | 1 | 0.353 | 1.97 |
| OBSCN | 2 | -0.0475 | 3.48 |
| OBSCN | 3 | 0.061 | 1.56 |
| ROR2 (ROR family WNT receptor 2) | 1 | -0.158 | 2.07 |
| MOK (MOK protein kinase) | 1 | 0.485 | 2.05 |
| NIFK (nucleolar protein interacting with the FHA domain of MKI67) | 1 | 0.373 | 3.53 |
| ZNG1A (Zn regulated GTPase metalloprotein activator 1A) | 1 | -0.186 | 2.13 |
| CBY1 (chibby 1, beta catenin antagonist) | 1 | 0.101 | 3.69 |
| ARRDC3 (arrestin domain containing 3) | 1 | -0.286 | 2.89 |
| SLC39A3 | 1 | -0.468 | 3.79 |
| FEM1C (fem-1 homolog C) | 1 | 0.00866 | 2 |
| RAB8B (RAB8B, member RAS oncogene family) | 1 | -0.397 | 1.36 |
| USP2 (ubiquitin specific peptidase 2) | 1 | -0.443 | 1.89 |
| NSRP1 (nuclear speckle splicing regulatory protein 1) | 1 | 0.238 | 1.98 |
| PALMD (palmdelphin) | 1 | -0.388 | 2.94 |
| GLA (galactosidase alpha) | 1 | 0.477 | 2.51 |
| TRIM58 (tripartite motif containing 58) | 1 | -0.502 | 3.44 |
| TPBG (trophoblast glycoprotein) | 1 | -0.565 | 2.88 |
| MMP15 (matrix metallopeptidase 15) | 1 | -0.252 | 4.48 |
| EPN2 (epsin 2) | 1 | 0.15 | 2.02 |
| NSDHL (NAD(P) dependent 3-beta-hydroxysteroid dehydrogenase NSDHL) | 1 | -0.228 | 2.1 |
| OR2L13 (olfactory receptor family 2 subfamily L member 13) | 1 | 0.505 | 2.49 |
| DCAF1 (DDB1 and CUL4 associated factor 1) | 1 | -0.46 | 4.08 |
| SPINK1 (serine peptidase inhibitor Kazal type 1) | 1 | 0.705 | 1.7 |
| HMGA1 (high mobility group AT-hook 1) | 1 | -0.097 | 2.34 |
| PDZK1 (PDZ domain containing 1) | 1 | -0.312 | 2.87 |
| PHRF1 (PHD and ring finger domains 1) | 1 | -0.755 | 1.7 |
| EIF2B3 (eukaryotic translation initiation factor 2B subunit gamma) | 1 | 0.262 | 1.94 |
| LGSN (lengsin, lens protein with glutamine synthetase domain) | 1 | 0.0764 | 2.47 |
| FGF23 (fibroblast growth factor 23) | 1 | 0.603 | 1.93 |
| TSPAN10 (tetraspanin 10) | 1 | 0.53 | 2.09 |
| CCT2 (chaperonin containing TCP1 subunit 2) | 1 | -0.338 | 4.53 |
| TAFAZZIN (tafazzin, phospholipid-lysophospholipid transacylase) | 1 | 0.69 | 2.72 |
| CD207 (CD207 molecule) | 1 | 0.467 | 2.29 |
| CCDC54 (coiled-coil domain containing 54) | 1 | 0.454 | 1.95 |
| HMX1 (H6 family homeobox 1) | 1 | 0.054 | 2.02 |
| RGMA (repulsive guidance molecule BMP co-receptor a) | 1 | 0.0919 | 1.39 |
| POGLUT1 (protein O-glucosyltransferase 1) | 1 | -0.429 | 5.52 |
| RIMS2 (regulating synaptic membrane exocytosis 2) | 1 | 0.35 | 2.4 |
| BDH1 (3-hydroxybutyrate dehydrogenase 1) | 1 | 0.352 | 2.39 |
| GLRA1 (glycine receptor alpha 1) | 1 | -0.395 | 1.89 |
| LSM2 | 1 | -0.322 | 2.58 |

Looked up above:
For “mean distance from KSR1 profile”, MMP15 (matrix metallopeptidase 15) is entered as 4.48
Value for RIMS2 (regulating synaptic membrane exocytosis 2) under “mean correlation with KSR1 profile”: 0.35
For “mean correlation with KSR1 profile”, GLRA1 (glycine receptor alpha 1) has -0.395
NSDHL (NAD(P) dependent 3-beta-hydroxysteroid dehydrogenase NSDHL), mean distance from KSR1 profile: 2.1
Under “mean correlation with KSR1 profile”, ARFRP1 (ARF related protein 1) is entered as -0.407
NIFK (nucleolar protein interacting with the FHA domain of MKI67), mean correlation with KSR1 profile = 0.373
